Values of other authors, collected in patent publication US10173038B2, “Retractable sheath devices, systems, and methods” (W. L. Gore & Associates, Inc., priority 2012, dated 2019).

solubility limit in water (neat DI-water, room temperature): about 0.4 μM
solubilized concentration of paclitaxel in solution (with hydroxypropyl-β-cyclodextrin at 60% (w/v in water)): approximately 4 mM
Structure (SMILES): CC(=O)O[C@H]1C(=O)[C@@]2(C)[C@H]([C@H](OC(=O)c3ccccc3)[C@]3(O)C[C@H](OC(=O)[C@H](O)[C@@H](NC(=O)c4ccccc4)c4ccccc4)C(C)=C1C3(C)C)[C@]1(OC(C)=O)CO[C@@H]1C[C@@H]2O [paclitaxel]
